Source: patent publication US20090285807A1 (METHERESIS TRANSLATIONAL RESEARCH, published 2009)
No constants are given. Whether binding was seen depends on the method and setting. Some binding calls cover weakened binding; strength is not graded here.

The chains behind the UniProt entries cited, without tags or fusion partners. Residues count along the entry.
UniProt P08581, residues 25-932: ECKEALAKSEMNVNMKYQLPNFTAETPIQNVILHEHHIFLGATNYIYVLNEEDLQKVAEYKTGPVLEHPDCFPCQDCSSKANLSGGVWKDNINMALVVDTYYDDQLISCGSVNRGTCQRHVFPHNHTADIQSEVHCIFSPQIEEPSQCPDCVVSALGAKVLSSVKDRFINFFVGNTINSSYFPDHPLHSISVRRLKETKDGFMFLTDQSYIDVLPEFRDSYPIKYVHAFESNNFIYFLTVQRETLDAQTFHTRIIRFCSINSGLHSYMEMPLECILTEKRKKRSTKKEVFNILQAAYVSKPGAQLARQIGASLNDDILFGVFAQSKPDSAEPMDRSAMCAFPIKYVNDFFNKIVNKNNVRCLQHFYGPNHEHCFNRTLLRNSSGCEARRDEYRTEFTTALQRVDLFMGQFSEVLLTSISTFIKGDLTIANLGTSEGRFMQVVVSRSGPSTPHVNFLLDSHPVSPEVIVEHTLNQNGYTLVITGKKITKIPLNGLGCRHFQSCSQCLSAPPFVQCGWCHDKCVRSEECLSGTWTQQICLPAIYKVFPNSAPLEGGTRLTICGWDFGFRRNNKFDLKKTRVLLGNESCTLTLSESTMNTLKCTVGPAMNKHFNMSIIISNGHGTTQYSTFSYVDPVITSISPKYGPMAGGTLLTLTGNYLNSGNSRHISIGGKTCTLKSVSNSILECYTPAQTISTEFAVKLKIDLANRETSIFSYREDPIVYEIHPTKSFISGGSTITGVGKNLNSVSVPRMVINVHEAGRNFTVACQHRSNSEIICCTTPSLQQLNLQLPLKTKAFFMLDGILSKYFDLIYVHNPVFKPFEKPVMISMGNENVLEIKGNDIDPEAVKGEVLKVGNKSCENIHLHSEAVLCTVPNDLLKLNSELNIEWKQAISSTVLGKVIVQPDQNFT

B1: recombinant AntiMET-R produced by carcinoma cell lines transduced with the bi-directional lentiviral vector carrying AntiMET-R cDNAs (antibody, mouse IgG2a, kappa, V domains shown)
VH: QVQLQQPGTELVKPGASVKLSCKASGYTFTSYWIHWVKQRPGQGLEWIGEINPSSGRTNYNEKFKNKVTVTVDKSSTTAYMQLSNLTSEDSAVYYCASRGYWGQGTTLTVSS
VL: DIVLTQSPASLAVSLGQRATISCKASQSVDYDGGSYMSWFQQRPGQPPKLLISAASNLESGIPARFSGSGSGTDFTLNIHPVEEEDVATYYCQQSYEDPLTFGAGTKLELKR
B2: AntiMET-R, anti-Met monoclonal antibody produced by the hybridoma cell line ICLC PD 05006 (antibody, mouse IgG2a, kappa, V domains shown)
VH: B1 VH
VL: B1 VL
notes: Mouse monoclonal antibody from a hybridoma; They may include leader peptides; also called purified AntiMET-R

Experiments:
[1] = biological target: purified MET extracellular domain fused to the Fc domain derived from Human Ig (UniProt P08581); experiment: ELISA on plates coated with MET extracellular domain-Fc (100 ng/well), antibody 0 to 5.5 nM
[2] = biological target: purified MET extracellular domain fused to the Fc domain derived from Human Ig (UniProt P08581); experiment: ELISA on plates coated with MET extracellular domain-Fc (FIG. 11B)

| Binder | binding [1] | binding [2] |
| --- | --- | --- |
| B1 | binds | binds |
| B2 | – | binds |
